The target of assay [1] is T1, endogenous par-4 of M15 mouse mesonephric cells (mouse) (UniProt Q925B0).
T1 sequence (looked up): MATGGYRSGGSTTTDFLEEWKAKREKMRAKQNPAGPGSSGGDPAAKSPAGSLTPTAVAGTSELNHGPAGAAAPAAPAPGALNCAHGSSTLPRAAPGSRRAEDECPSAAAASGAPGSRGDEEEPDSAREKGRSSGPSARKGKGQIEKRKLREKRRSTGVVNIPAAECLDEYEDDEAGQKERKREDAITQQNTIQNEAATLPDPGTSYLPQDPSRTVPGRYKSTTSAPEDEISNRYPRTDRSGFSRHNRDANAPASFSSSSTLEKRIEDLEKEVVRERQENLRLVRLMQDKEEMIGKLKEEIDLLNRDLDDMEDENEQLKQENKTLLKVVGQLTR
In words: co-immunoprecipitation of endogenous proteins from M15 cells (FIG. 4E legend).

The chains behind the UniProt entries cited, without tags or fusion partners.
UniProt P22561: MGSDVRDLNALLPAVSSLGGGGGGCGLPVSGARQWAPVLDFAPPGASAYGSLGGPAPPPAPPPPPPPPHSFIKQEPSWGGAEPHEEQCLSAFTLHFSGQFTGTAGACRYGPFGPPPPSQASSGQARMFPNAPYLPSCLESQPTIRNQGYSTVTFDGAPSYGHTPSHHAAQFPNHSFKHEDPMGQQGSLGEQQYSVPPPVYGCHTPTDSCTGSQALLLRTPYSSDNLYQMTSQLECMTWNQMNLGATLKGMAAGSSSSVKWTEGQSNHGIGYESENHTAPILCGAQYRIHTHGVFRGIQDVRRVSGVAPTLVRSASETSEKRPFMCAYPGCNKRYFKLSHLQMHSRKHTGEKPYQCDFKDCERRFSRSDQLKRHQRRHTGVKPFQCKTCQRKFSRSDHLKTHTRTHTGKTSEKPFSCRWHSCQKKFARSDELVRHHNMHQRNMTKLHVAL

Assay [2] concerns the target T1, endogenous par-4 of M15 mouse mesonephric cells (mouse). Description: co-immunoprecipitation of endogenous proteins from M15 whole cell lysate, anti-WT1 Western blot (FIG. 4E).
Assay [3] has the same target. In words: co-immunoprecipitation from M15 cells.
Assay [4] shares this target. In words: co-immunoprecipitation, M15 cells.
The target of assay [5] is T2, GST-par-4 (full length rat par-4) (rat) (UniProt Q62627).
T2 sequence (looked up): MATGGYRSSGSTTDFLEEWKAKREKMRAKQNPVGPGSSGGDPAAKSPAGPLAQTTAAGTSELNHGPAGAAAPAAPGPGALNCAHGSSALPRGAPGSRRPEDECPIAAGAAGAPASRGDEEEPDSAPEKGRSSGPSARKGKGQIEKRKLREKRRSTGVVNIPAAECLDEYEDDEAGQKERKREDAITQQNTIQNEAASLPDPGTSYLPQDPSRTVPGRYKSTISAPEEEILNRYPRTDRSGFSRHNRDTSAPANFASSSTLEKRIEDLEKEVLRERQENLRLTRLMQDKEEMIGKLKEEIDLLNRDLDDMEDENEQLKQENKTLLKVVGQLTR
Description: in vitro binding to par-4; construct not named, data not shown.

These are yes or no findings as the source states them, for the method shown. For part of these data: In cells and extracts the contact can be indirect. Some results given as binding are weak or reduced against the parent protein; the word gives no strength. For part of these data: Tags and fused reporters may be left off the sequences shown.

As to “endogenous WT1 of M15 mouse mesonephric cells (from UniProt P22561 1-449)”, the binding entry in assay [1], in assay [2], in assay [3] and in assay [4] was “binds” in each case.
For the substance “WT1 isoform B (from UniProt P19544 1-446)”, the binding result in assay [5] was “binds”.
As to “WT1 isoform C (from UniProt P19544 1-432)”, in assay [5], the binding entry is “binds”.
